Measured values from PMC13080232.
No constants are given. Whether binding was seen depends on the method and setting. In cells and extracts the contact can be indirect. Some results given as binding are weak or reduced against the parent protein; the word gives no strength.

Sequences of proteins named here, by UniProt entry; tags and fusion partners are left off. Residues count along the entry.
UniProt P21926: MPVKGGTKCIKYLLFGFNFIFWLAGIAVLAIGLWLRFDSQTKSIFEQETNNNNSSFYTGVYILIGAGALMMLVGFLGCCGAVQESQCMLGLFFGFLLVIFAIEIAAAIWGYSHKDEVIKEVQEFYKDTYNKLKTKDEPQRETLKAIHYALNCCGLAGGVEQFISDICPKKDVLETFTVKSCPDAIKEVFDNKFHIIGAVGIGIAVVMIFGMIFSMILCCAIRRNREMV
UniProt P16070, residues 21-742: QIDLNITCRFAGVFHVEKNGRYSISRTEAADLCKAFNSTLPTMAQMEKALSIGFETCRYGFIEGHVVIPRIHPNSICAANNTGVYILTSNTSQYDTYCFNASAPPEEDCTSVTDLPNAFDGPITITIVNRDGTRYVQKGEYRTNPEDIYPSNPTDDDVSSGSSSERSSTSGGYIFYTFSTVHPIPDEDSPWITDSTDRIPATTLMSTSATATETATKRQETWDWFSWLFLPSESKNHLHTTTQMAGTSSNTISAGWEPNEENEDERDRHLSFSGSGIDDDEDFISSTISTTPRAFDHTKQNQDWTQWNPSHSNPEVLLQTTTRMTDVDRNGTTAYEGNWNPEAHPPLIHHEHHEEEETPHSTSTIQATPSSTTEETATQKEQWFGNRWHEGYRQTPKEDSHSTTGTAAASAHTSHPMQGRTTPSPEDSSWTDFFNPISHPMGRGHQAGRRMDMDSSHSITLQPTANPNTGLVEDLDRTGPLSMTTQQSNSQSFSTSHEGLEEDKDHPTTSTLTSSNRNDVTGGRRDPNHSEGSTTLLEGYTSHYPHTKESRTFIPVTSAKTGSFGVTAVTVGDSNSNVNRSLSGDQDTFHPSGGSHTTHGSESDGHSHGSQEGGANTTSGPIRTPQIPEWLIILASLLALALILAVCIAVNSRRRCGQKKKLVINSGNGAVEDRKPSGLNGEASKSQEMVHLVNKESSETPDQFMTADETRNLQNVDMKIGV

Target: CD9:TurboID fusion protein (human) (UniProt P21926)
Assay: co-IP; RIPA whole cell lysates of CD9-/- A549 cells transfected with CD9:TurboID (eGFP cells as control); rabbit anti-V5 antibody on protein G magnetic beads, 60 min at 4 °C; washed in PBS with 0.2% Triton X-100; blots probed with anti-CD44 or anti-CD147

binding: binds
Substance: CD44 (from UniProt P16070 21-742)
